In PMC11549291:
No constants are given. Whether binding was seen depends on the method and setting. Binding seen in cells or lysates may run through a third protein. Some entries that bind do so weakly or less than the wild type.

Sequences of proteins named here, by UniProt entry; tags and fusion partners are left off.
UniProt Q7RTP6: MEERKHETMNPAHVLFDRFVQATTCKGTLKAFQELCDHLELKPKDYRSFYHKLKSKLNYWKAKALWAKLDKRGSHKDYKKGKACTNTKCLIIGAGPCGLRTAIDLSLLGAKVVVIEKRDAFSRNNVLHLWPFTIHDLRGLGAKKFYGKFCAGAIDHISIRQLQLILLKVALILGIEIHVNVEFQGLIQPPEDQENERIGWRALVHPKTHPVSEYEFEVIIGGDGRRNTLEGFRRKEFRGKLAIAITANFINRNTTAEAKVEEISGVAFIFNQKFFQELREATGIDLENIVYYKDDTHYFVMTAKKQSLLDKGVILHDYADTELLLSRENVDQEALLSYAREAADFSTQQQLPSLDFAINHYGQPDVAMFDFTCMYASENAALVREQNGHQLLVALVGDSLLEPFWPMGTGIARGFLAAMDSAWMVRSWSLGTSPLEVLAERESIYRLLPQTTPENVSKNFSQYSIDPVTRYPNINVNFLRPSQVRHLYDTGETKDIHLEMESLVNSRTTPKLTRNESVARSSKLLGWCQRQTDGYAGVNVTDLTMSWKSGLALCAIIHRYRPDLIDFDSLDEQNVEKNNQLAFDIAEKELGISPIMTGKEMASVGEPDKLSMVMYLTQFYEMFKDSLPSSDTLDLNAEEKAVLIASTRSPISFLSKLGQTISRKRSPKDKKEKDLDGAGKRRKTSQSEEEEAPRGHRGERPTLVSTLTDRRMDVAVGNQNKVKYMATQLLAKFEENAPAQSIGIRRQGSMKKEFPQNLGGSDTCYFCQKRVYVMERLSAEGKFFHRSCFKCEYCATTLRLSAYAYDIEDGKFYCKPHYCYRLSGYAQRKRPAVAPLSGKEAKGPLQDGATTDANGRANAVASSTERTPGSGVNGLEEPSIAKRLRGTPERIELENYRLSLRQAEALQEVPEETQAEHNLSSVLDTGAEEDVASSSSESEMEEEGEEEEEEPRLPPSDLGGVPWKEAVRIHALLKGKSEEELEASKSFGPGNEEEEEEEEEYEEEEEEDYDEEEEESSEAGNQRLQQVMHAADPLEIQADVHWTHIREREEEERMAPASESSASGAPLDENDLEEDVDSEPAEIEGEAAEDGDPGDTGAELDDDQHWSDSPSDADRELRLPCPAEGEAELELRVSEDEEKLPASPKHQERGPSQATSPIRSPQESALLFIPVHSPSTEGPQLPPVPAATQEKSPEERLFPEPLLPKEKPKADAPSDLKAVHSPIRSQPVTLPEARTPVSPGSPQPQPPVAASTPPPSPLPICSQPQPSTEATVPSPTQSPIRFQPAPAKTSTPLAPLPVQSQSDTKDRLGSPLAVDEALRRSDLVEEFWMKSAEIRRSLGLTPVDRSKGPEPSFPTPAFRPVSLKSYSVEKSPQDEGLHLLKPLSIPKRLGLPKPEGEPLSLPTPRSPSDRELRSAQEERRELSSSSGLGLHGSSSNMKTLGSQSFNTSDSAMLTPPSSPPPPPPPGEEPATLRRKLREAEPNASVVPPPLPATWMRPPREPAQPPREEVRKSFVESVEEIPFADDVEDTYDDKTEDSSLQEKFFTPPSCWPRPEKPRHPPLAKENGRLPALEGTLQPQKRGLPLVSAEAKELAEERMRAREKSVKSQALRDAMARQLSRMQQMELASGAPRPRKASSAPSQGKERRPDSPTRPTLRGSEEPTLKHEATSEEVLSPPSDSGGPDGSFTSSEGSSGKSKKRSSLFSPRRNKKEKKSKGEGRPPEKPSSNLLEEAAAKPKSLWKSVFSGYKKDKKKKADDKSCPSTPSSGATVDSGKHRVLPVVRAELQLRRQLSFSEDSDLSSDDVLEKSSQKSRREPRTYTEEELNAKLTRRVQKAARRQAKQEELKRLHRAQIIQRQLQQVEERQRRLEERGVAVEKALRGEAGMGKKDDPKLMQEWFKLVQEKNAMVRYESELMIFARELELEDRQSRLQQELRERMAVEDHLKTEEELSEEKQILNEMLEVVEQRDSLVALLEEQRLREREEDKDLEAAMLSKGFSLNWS

Columns and labels:
[1] = molecular target: T1, wild-type CHK1 (transfected construct) (UniProt O14757); test: co-IP; HEK-293 cells transfected with constructs of wild-type or mutant CHK1; IP with the CHK1 antibody, western blot for MICAL3
T1 sequence: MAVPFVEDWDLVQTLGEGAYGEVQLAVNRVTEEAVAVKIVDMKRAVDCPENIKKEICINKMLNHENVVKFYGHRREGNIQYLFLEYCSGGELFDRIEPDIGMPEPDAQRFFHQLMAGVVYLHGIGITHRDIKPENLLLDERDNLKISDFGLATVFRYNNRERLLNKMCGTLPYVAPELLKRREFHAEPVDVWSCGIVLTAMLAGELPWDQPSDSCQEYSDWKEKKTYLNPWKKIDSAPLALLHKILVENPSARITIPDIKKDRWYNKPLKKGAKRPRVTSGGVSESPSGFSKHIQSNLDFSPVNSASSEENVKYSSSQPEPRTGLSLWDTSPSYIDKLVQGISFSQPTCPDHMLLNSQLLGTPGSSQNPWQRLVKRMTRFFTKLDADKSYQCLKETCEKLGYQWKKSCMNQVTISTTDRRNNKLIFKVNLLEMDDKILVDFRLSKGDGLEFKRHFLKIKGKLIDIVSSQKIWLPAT

[2] = molecular target: T2, serine/threonine checkpoint kinase CHK1 (human (endogenous in HEK-293; endogenous in human oocytes and embryos)) (UniProt O14757); test: proximity ligation; Duolink In Situ Red kit, fixed HEK-293 cells, rabbit anti-CHK1 and mouse anti-MICAL3 primary antibodies; negative control without primary antibodies
T2 sequence: T1 sequence

[3] = molecular target: T2, serine/threonine checkpoint kinase CHK1 (human (endogenous in HEK-293; endogenous in human oocytes and embryos)); test: proximity ligation; Duolink In Situ Red kit, fixed human GV oocyte, 2-cell and 4-cell embryos, rabbit anti-CHK1 and mouse anti-MICAL3 primary antibodies; GV oocyte without primary antibodies as control
[4] = molecular target: T2, serine/threonine checkpoint kinase CHK1 (human (endogenous in HEK-293; endogenous in human oocytes and embryos)); test: co-IP; HEK-293 lysate, endogenous proteins; IP with the CHK1 antibody or with the MICAL3 antibody, Protein A/G magnetic beads, western blot; also after treatment of the cells with the CHK1 inhibitor PF477736 (interaction enhanced)

binding [1]: binds | binding [2]: binds | binding [3]: binds | binding [4]: binds
Substance: MICAL3 (from UniProt Q7RTP6 1-2002)
